According to PubChem BioAssay AID493014 (National Center for Advancing Translational Sciences (NCATS), 2011):
This is one part of the list. Shown are side measurements of this screen, not its main read-out; they come without a call. Most of these compounds were active or inconclusive in the main read-out, so they are no random draw. Words in brackets tell the shape of the fitted curve; partial curves, single points and poor fits give uncertain potencies.

Assay: qHTS Assay to Find Inhibitors of Chronic Active B-Cell Receptor Signaling
Details: ABC-DLBCL IkBa-CBG/CBR reporter, luminescence ratio (green luciferase fused to IkBa over red control in TMD8 lymphoma cells), 4 h
Method in brief: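 Concentration-response series (up to 46 uM) were applied to TMD8 dual-reporter cells for 4 h at 37C with doxycycline. Green/red ratio, after filter-overlap correction, defined %Activity; red signal alone was normalised to basal cells and zero luminescence.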

[1] = measured here: CBR red luminescence, cell number
[2] = measured here: IkBa-CBG green luminescence

| Structure (SMILES) | AC50 [1] | AC50 [2] |
| --- | --- | --- |
| O=C1C2C3CCC(O3)C2C(=O)N1CCO (stereo not given) | 6.31 µM [rising, single point] |  |
| O=S(=O)(c1ccc(F)cc1)N1CCCC1c1cccnc1 (stereo not given) | 35.5 µM [falling, single point] |  |
| CN(C)c1ccc2c(c1)N=C(c1ccco1)OP2(=S)N1CCOCC1 (stereo not given) | 0.891 µM [rising, full curve, poor fit] |  |
| Cc1ccc(N2C(=O)NC(=O)/C(=C\c3cc(C)n(-c4sc5c(c4C#N)CCCC5)c3C)C2=O)cc1 | 18.4 µM [rising, single point] | 20.6 µM [falling, partial curve, poor fit] |
| Cn1/c(=N/NC(=O)c2ccccc2Br)sc2ccccc21 | 10 µM [falling, partial curve] |  |
| COC(=O)C1C2c3ccccc3OC1(C)N=c1s/c(=C/c3cnn(C)c3C)c(=O)n12 (stereo not given) | 6.51 µM [rising, single point] |  |
| COP(=O)(OC)C(O)C(Cl)(Cl)Cl (stereo not given) | 2.51 µM [rising, partial curve, poor fit] |  |
| CCn1c(NN=O)nc2ccccc21 | 7.94 µM [falling, partial curve] | 6.31 µM [rising, partial curve, poor fit] |
| O=c1[nH]c(O)c(N=Nc2ccc([N+](=O)[O-])cc2)c(=O)[nH]1 | 31.6 µM [falling, single point] |  |
| c1ccc(Cn2ccnc2)cc1 | 10 µM [rising, partial curve, poor fit] |  |
| CC(=O)OC1(c2ccccc2)CCN(C)C2CCCCC21 (stereo not given) | 0.58 µM [falling, full curve, poor fit] |  |
| CCCCCSc1cc(OC)c(CCN)cc1OC | 35.5 µM [falling, single point] |  |
| O=[N+]([O-])c1ccc(Sc2ncccn2)c([N+](=O)[O-])c1 | 14.1 µM [falling, partial curve, poor fit] |  |
| O=C(COC(=O)c1ccc(O)cc1)Nc1ccc(Cl)cc1C(=O)c1ccccc1 | 29.1 µM [falling, single point] |  |
| CN=C(SCc1cc2c(cc1Cl)OCO2)c1c(O)n(C)c(=O)n(C)c1=O | 10 µM [falling, partial curve, poor fit] |  |
| CCn1nc(C)cc1C(=O)Sc1ccc(Cl)cc1Cl | 22.4 µM [falling, single point] |  |
| COc1ccc(/C=C2\CC/C(=C\c3ccc(OC)c(OC)c3)C2=O)cc1OC | 3.16 µM [falling, full curve, poor fit] |  |
| CC(=NCc1ccco1)c1c(O)n(-c2ccc(C)cc2)c(=O)[nH]c1=O | 3.98 µM [rising, partial curve, poor fit] |  |
| Nc1c(C(=O)NCc2ccco2)c2nc3ccccc3nc2n1CCN1CCCCC1 | 23.1 µM [falling, partial curve, poor fit] |  |
| O=c1c2ccccc2nc(CNc2ccccc2)n1-c1ccccc1 | 14.1 µM [falling, partial curve] |  |
| COc1cc2nc(N3CCN(c4cc(C)ccc4C)CC3)nc(N)c2cc1OC | 22.4 µM [falling, single point] |  |

| Structure (SMILES) | AC50 [1] | AC50 [2] |
| --- | --- | --- |
| Cc1ccsc1/C=C1\C(=O)NC(=S)N(C)C1=O | 2.82 µM [falling, full curve] |  |
| COC(=O)C1=C(c2ccc(F)cc2OCc2ccccc2)C[C@@H]2CC[C@H]1N2C(=O)N1CCCCC1 | 11.6 µM [falling, partial curve] |  |
| CCOC(=O)c1c(C)n(Cc2ccc3c(c2)OCO3)c2ccc(O)cc12 | 3.26 µM [falling, partial curve, poor fit] |  |
| CCc1ccc(CNCCc2c[nH]c3ccccc23)cc1 | 35.5 µM [falling, single point] |  |
| COc1ccc(OC)c(CN2CCN(C(=O)COc3cccc(C)c3)CC2)c1 | 4.47 µM [rising, full curve, poor fit] |  |
| COc1ccc2c(c1)CC1(CN2C)C(=O)NC(=O)N(c2ccc(C)cc2)C1=O (stereo not given) | 23.1 µM [falling, single point] |  |
| O=[N+]([O-])c1ccc(N2CCCCCC2)c2ncccc12 | 15.8 µM [rising, single point] |  |
| Cn1cccc1/C=C1\C(=O)NC(=O)N(Cc2ccccc2)C1=O | 35.5 µM [rising, single point] |  |
| COc1ccc(NP(=O)(Oc2ccc(Cl)cc2)Oc2ccc(Cl)cc2)cc1OC | 29.1 µM [falling, single point] | 32.6 µM [rising, partial curve, poor fit] |
| Cc1ccc(N)c(C(=O)c2ccc(Br)cc2)c1 | 35.5 µM [rising, single point] |  |
| O=c1cc(CN2CCNCC2)nc2sccn12 | 15.8 µM [rising, single point] |  |
| O=C(c1cccc(C(F)(F)F)c1)C1CCCN(Cc2ccccc2O)C1 (stereo not given) | 0.501 µM [rising, full curve, poor fit] |  |
| O=C(N/N=C/c1c(O)n(Cc2ccccc2)c(=O)[nH]c1=O)c1ccccc1 | 3.26 µM [falling, full curve] |  |
| CCN(CC)C(=O)c1ccc(NC(=O)Cn2nc(C)c3ccccc3c2=O)cc1 | 2.31 µM [rising, full curve] |  |
| O=C(Nc1ccc(Cl)cc1)OC1CN2CCC1CC2 (stereo not given) | 3.98 µM [rising, single point] |  |
| O=c1c2ccccc2nc(-c2cccs2)n1-c1ccccc1 | 2.24 µM [rising, full curve] |  |
| Cc1cc(C=O)c(C)n1CC1CCCO1 (stereo not given) | 29.1 µM [rising, single point] |  |
| CC(=O)c1cn(Cc2ccccc2F)c2ccccc12 | 14.1 µM [rising, single point] |  |
| O=CC(Cl)P(=O)(N1CCCCC1)N1CCCCC1 (stereo not given) | 20 µM [rising, single point] |  |
| Cc1cc2cc(OCc3ccccc3)ccc2n1C | 2 µM [rising, partial curve, poor fit] |  |
| CC(C)C[C@H]1C(=O)N2CCCC2[C@]2(O)O[C@](NC(=O)[C@@H]3C=C4c5cccc6[nH]cc(c56)CC4N(C)C3)(C(C)C)C(=O)N12 (stereo not given in full) | 3.26 µM [falling, partial curve, poor fit] |  |

Three compounds drawn at random from those above, as already listed:

| Structure (SMILES) | AC50 [1] | AC50 [2] |
| --- | --- | --- |
| COc1cc2nc(N3CCN(c4cc(C)ccc4C)CC3)nc(N)c2cc1OC | 22.4 µM [falling, single point] |  |
| CN(C)c1ccc2c(c1)N=C(c1ccco1)OP2(=S)N1CCOCC1 (stereo not given) | 0.891 µM [rising, full curve, poor fit] |  |
| Nc1c(C(=O)NCc2ccco2)c2nc3ccccc3nc2n1CCN1CCCCC1 | 23.1 µM [falling, partial curve, poor fit] |  |
